At least one structure is not confirmed: it was looked up by name or label, or the drawing left a doubt.
Test: Experimentally induced hypodisproteinemia in rats
Type: in vivo
Details: rat, 10 mg/kg of SAM

SMILES: C[S+](CCC(N)C(=O)[O-])CC1OC(n2cnc3c(N)ncnc32)C(O)C1O (stereo not drawn) [SAM]
- albumin level: substantially increasing the albumin level
- protein anabolic activity: marked protein anabolic activity
- total proteinemia: returns the total proteinemia values to normal
